No constants are given. Whether binding was seen depends on the method and setting. Binding seen in cells or lysates may run through a third protein. Here binding means that the protein was enriched with, or labelled near, the bait; the list need not be complete.

Chains of the proteins cited; added tags and fusions are not shown.
UniProt Q86U44: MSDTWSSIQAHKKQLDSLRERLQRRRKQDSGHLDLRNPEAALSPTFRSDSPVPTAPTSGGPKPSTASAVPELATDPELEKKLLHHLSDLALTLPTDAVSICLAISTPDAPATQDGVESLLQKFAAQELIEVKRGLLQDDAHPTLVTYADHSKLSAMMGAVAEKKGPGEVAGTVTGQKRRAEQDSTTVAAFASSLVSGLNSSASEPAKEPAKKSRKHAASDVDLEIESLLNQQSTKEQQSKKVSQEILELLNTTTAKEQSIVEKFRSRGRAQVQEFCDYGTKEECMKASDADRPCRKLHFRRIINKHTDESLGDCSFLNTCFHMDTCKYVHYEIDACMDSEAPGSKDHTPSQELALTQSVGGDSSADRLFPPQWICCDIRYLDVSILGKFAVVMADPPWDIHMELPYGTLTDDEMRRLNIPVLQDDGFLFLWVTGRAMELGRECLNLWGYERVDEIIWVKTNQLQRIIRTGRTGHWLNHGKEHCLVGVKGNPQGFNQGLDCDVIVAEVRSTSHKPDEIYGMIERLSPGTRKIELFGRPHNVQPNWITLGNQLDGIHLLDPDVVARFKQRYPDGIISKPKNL
UniProt P62195: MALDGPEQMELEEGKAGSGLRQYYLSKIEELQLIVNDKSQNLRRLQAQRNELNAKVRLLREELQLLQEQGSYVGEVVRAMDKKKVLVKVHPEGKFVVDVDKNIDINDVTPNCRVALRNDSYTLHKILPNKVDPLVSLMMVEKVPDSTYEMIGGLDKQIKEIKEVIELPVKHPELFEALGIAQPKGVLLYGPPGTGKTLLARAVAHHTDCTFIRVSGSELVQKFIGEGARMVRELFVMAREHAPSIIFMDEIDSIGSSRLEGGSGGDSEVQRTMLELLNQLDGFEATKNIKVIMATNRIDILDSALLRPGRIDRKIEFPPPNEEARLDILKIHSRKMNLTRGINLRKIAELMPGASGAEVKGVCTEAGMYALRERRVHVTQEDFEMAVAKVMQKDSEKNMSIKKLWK
UniProt P17980: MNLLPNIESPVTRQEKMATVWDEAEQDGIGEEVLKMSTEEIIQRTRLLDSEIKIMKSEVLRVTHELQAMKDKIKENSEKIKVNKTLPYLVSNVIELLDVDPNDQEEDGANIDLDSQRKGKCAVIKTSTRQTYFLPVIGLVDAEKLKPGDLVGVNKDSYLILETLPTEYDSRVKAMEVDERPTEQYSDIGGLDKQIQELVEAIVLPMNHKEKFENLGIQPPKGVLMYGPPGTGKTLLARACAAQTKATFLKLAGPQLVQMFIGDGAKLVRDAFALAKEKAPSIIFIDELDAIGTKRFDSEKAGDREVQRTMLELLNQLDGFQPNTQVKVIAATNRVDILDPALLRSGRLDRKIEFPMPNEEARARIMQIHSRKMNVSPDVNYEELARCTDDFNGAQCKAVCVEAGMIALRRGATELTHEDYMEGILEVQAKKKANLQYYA
UniProt O75832: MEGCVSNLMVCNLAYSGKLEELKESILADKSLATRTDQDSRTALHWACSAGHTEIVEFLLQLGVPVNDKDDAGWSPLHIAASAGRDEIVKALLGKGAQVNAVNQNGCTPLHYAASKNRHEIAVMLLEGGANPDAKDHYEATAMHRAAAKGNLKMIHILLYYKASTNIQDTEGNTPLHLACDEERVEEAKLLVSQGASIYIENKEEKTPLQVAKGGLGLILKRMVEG

For the assay, the target named is METTL3, endogenous (human (endogenous in 293T)) (UniProt Q86U44). Briefly: affinity purification with mass spectrometry; IP with METTL3 antibody from 293T cells, LC–MS/MS of the eluate (Figure 7f).

In the case of PSMC5 (from UniProt P62195 1-406), the binding result was “binds”. For the substance PSMC3 (from UniProt P17980 1-439), the binding entry is reported as “binds”. For the substance PSMD10 (from UniProt O75832 1-226), the binding result is given as “binds”.

These data come from publication PMC10435237.
